No signal at the amounts used counts as a negative. Tags and fusion partners may be left off the protein sequences shown.

In this data set the target is T1, RIG-I (DDX58), full-length (Homo sapiens) (UniProt O95786).
T1 sequence (looked up): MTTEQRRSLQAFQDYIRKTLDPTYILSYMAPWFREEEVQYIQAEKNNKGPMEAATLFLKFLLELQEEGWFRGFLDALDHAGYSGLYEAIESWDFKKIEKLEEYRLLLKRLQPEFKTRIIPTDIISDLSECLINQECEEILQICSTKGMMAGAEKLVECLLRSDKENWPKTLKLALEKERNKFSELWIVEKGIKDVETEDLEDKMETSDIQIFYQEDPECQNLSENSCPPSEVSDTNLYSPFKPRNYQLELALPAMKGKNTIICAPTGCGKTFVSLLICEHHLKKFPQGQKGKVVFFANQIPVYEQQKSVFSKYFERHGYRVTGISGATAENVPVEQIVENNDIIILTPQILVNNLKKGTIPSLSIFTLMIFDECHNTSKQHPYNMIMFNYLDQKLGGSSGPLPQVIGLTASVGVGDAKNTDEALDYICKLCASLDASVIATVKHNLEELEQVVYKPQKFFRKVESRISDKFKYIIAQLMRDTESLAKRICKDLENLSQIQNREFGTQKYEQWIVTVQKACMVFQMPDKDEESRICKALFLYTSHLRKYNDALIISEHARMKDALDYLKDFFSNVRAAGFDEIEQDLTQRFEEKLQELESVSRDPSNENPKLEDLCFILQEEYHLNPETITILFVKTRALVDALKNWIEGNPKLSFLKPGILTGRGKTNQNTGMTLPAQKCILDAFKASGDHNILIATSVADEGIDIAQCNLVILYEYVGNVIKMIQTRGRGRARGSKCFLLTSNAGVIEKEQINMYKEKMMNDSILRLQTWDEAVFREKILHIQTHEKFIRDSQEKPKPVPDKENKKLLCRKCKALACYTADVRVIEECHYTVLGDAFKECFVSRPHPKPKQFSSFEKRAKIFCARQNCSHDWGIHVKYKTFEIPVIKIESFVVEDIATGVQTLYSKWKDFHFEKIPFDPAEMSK
Briefly: activity in cells. The conditions noted are these: IFN-beta luciferase reporter in HEK293, protein in cells. In general terms: In a reporter assay the amount or activity of a reporter protein is the signal.

As for “GCAUGCGACCUCUGUUUGA / UCAAACAGAGGUCGCAUGC [unphosphorylated dsRNA 19-mer negative control]”, under “negative control”, the functional effect result is “not active”.
For “GCAUGCGACCUCUGUUUGA / UCAAACAGAGGUCGCAUGC [5'-triphosphate dsRNA 19-mer positive control]”, the functional effect entry (5'-triphosphate on top strand, positive control) is on record as “active”.

(Values after patent publication US20170268001A1, “RNAS WITH TUMOR RADIO/CHEMO-SENSITIZING AND IMMUNOMODULATORY PROPERTIES AND METHODS OF THEIR PREPARATION AND APPLICATION” (THE UNIVERSITY OF CHICAGO, priority 2016, published 2017).)
